Assay results reported in patent US20190161551A1.
Results are given in words; binding and its absence hold for the method and conditions named. Some entries that bind do so weakly or less than the wild type. Each block holds one binder with its values, some of them ahead of it.

Molecular target: mouse TrkB.hFc (mouse)
Experiment: blocking ELISA: constant mouse TrkB.hFc (REGN2277) pre-mixed with antibody, binding to plate-coated BDNF

binding: binds
B1: M2aM14173N (antibody, mouse IgG2a, kappa, V domains shown)
VH: NVSLVESGGGSVKPGGSLQLSCAASGFTFSSSAMSWIRQTPEMRLEWVATISDRGSYTYYPDSVEGRFTISRDNAKNILYLQMSHLMSEDTAMYYCARGKGEKAYYTAFFAYWGQGSLVTVSA
VL: DIQMTQSPASLSASVGETVTITCRASENIYSYLAWYQQKPGKSPHLLVHNAETLAEGVPSRFSGSGSGPQFSLKINSLQPGDSGTYYCQHHYSSPWTFGGGTKLEIKR

binding: binds
B2: M2aM14179N (antibody, mouse IgG2a, kappa, V domains shown)
VH: EVQLQQSGPELVKPGASVKISCKASGYTLTDYYMNWVKQSHGKSLEWIGDINPNNGGTSYNQKFKGKATLTVDKSSSTAYMELRSLTSEDSAVYYCARGAYYSNYFDYWGQGTTLTVSS
VL: DIVMSQSPSSLAVSAGEKVTMSCKSSQSLLNSRTRKNYLAWYQQKPGQSPKLLIYWASTRESGVPDRFTGSGSGTDFTLTISSVQAEDLAVYYCKQSYILFTFGSGTQLEIKR
